# The supplement of paper PMC12873370
# Several values for one entry are separate records, joined by “and”; a condition that tells them apart may be missing. Equal entries are not always repeated. The list shows a part of the results. Single values are uncertain, as repeats are few or missing.
# What was measured:
# Test in all cases: cell viability relative to untreated (fraction); higher = less growth inhibition
# Conditions in all cases: 5 µM; 3 days
# [1] = tested on: MEPP (mouse ovarian epithelium Trp53/Pten KO)
# [2] = tested on: PREPP (mouse prostate epithelium Trp53/Pten KO)
# [3] = tested on: MEPP (mouse ovarian epithelium Trp53/Pten KO); remark: listed apart in the source
# [4] = tested on: PREPP (mouse prostate epithelium Trp53/Pten KO); remark: listed apart in the source
SMILES,cell viability [1],cell viability [2],cell viability [3],cell viability [4]
COc1cc2ncnc(Nc3ccc(O)cc3)c2cc1OC,0.932,0.843,,
CC(C)N(CCCNC(=O)Nc1ccc(C(C)(C)C)cc1)C[C@H]1O[C@@H](n2cc(Br)c3c(N)ncnc32)[C@H](O)[C@@H]1O,0.806,1.06,,
O=C(O)CCNc1cc(N2CCc3ccccc3CC2)nc(-c2cccnc2)n1,0.977,0.998,,
O=[N+]([O-])c1ccc(Sc2cccc[n+]2[O-])c2nonc12,0.852,0.67,,
Cc1cc(Nc2cc(N3CCN(C)CC3)nc(Sc3ccc(NC(=O)C4CC4)cc3)n2)n[nH]1,0.642,0.68,,
O=C(NCC1(c2nc(-c3ccccc3)cs2)CCOCC1)c1cccc(-c2noc(C(F)(F)F)n2)c1,0.949,0.954,,
COc1cc2c(NC3CCN(C(C)C)CC3)nc(C3CCCCC3)nc2cc1OCCCN1CCCC1,1.01,0.823,,
O=C(O)CCCc1ccccc1,0.829,0.76,,
N#Cc1ccc(OC2CCC(NC(=O)CCSc3nc4ccccc4c(=O)[nH]3)CC2)cc1 (centres undefined),0.929,0.746,,
O=C(CCCCCCC(=O)NO)NO,0.882,0.808,,
Cc1cc(C)nc(SCC(=O)Nc2ncc(Cc3cccc4ccccc34)s2)n1,1.1,1.01,,
COC(=O)[C@]12CCC(C)(C)C[C@H]1[C@H]1C(=O)C=C3[C@@]4(C)C=C(C#N)C(=O)C(C)(C)[C@@H]4CC[C@@]3(C)[C@]1(C)CC2,0.144,0.383,,
Cc1nc(Nc2cnn(C3CCNCC3)c2)nc2c1N(C)C(=O)c1cc3ccccc3cc1N2C,0.983,0.838,,
N=C(N)NC(=N)NCCc1ccccc1,0.911,0.987,,
CC(C)c1c(-c2ccccc2)nc2c(C#N)c[nH]n2c1=O,1.16,1.11,,
C[C@@H]1O[C@@H](CC(=O)O)CC2=C1C(=O)c1c(O)cccc1C2=O,0.128,0.257,,
C[C@@H]1CCN(C(=O)CC#N)C[C@@H]1N(C)c1ncnc2[nH]ccc12,0.925 and 0.912,0.888 and 0.841,,
N#Cc1ccc(-c2csc(NN=C3CCCC3)n2)cc1,1.15,0.976,,
CNNCc1ccc(C(=O)NC(C)C)cc1,1.05,1.02,,
COc1cc2c(NC3CCN(CC4CCCCC4)CC3)nc(N3CCCN(C(C)C)CC3)nc2cc1OCCCN1CCCCC1,0.797,0.835,,
C[C@H](NC(=O)CCc1nc2ccccc2c(=O)[nH]1)c1ccccc1,0.915,0.973,,
CS(=O)(=O)c1ccc(-c2nnc(/C=C/c3nnc(-c4ccc(C#N)cc4)o3)n2-c2ccccc2Cl)nc1,0.871,0.932,,
CN(C)C(=N)NC(=N)N,0.991,0.971,,
COC1CCN(C(=O)c2cc(Cc3n[nH]c(=O)c4ccccc34)ccc2F)CC1,0.843,0.946,,

# Part of the list above with just cell viability [2] and cell viability [4].
SMILES	cell viability [2]	cell viability [4]
N#Cc1ccc(OC2CCC(NC(=O)CCSc3nc4ccccc4c(=O)[nH]3)CC2)cc1 (centres undefined)	0.746	
COC(=O)[C@]12CCC(C)(C)C[C@H]1[C@H]1C(=O)C=C3[C@@]4(C)C=C(C#N)C(=O)C(C)(C)[C@@H]4CC[C@@]3(C)[C@]1(C)CC2	0.383	
CC(C)c1c(-c2ccccc2)nc2c(C#N)c[nH]n2c1=O	1.11	

# More records follow.

SMILES,cell viability [1],cell viability [2],cell viability [3],cell viability [4]
O=C(/C=C/N1C[C@H]2C[C@@H]1CN2c1ccccn1)c1ccccc1O,1.18,1.08,,
COc1cc2nc(N3CCCN(C)CC3)nc(NC3CCN(Cc4ccccc4)CC3)c2cc1OC,0.882,0.884,,
COc1cc2c(cc1OC)C(=O)C(CC1CCN(Cc3ccccc3)CC1)C2 (centres undefined),1.07,0.905,,
COc1ccc(-c2nc(N3CCOCC3)c3sc(CN(C)c4ncc(C(=O)NO)cn4)cc3n2)cn1,0.508,0.501,,
O=C1CCc2c(ccc3ccccc23)O1,1.03,0.989,,
Cn1cc(-c2ccc(S(=O)(=O)n3ccc(/C=C/C(=O)Nc4ccccc4N)c3)cc2)cn1,0.58,0.639,,
CCCCc1nc2cc(/C=C/C(=O)NO)ccc2n1CCN(CC)CC,0.641,0.639,,
Nc1ncn([C@@H]2O[C@H](CO)[C@@H](O)[C@H]2O)c(=O)n1,0.829,0.898,,
CC(C)N(CCCNC(=O)Nc1ccc(C(C)(C)C)cc1)C[C@H]1O[C@@H](n2ccc3c(N)ncnc32)[C@H](O)[C@@H]1O,0.963,0.904,,
Cc1cc(Nc2ccc(NC(=O)c3ccc(Nc4ccnc5ccccc45)cc3)cc2)nc(N)n1,1.02,1.04,,
CN(C)Cc1ccc(-c2nc3cccc4c3n2CCNC4=O)cc1,0.955,0.926,,
O=C(CCCCCCNC(=O)c1cnc(N(c2ccccc2)c2ccccc2)nc1)NO,0.782,0.966,,
O=S(=O)(NCCSSCCNS(=O)(=O)c1cc(Cl)ccc1Cl)c1cc(Cl)ccc1Cl,0.805,1.1,,
Cc1cc(Cl)ccc1OCCCC(=O)NO,0.708,0.813,,
CC[C@H]1OC(=O)[C@H](C)[C@@H](O[C@H]2C[C@@](C)(OC)[C@@H](O)[C@H](C)O2)[C@H](C)[C@@H](O[C@@H]2O[C@H](C)C[C@H](N(C)C)[C@H]2O)[C@](C)(O)C[C@@H](C)C(=O)[C@H](C)[C@@H](O)[C@]1(C)O,,,0.831,0.816
C[C@@H]1CC[C@@]2(OC1)O[C@H]1C[C@H]3[C@@H]4CC=C5C[C@@H](O)CC[C@]5(C)[C@H]4CC[C@]3(C)[C@H]1[C@@H]2C,1.08,0.989,0.964,1.04
Nc1ncn([C@H]2C[C@H](O)[C@@H](CO)O2)c(=O)n1,0.832,0.906,1.06,0.966
CCCC(=O)[O-].[Na+],1.03,0.844,1.05,1.02
NC(=O)c1cccnc1,0.875,0.888,1.01,1.01
O=c1c(O)c(-c2ccc(O)c(O)c2)oc2cc(O)ccc12,0.966,0.925,0.799,1.1
COc1cccc2c1C(=O)c1c(O)c3c(c(O)c1C2=O)C[C@@](O)(C(=O)CO)C[C@@H]3O[C@H]1C[C@H](N)[C@H](O[C@@H]2CCCCO2)[C@H](C)O1,0.294,0.392,0.499,0.867
CO[C@@]12[C@H](COC(N)=O)C3=C(C(=O)C(C)=C(N)C3=O)N1C[C@@H]1N[C@@H]12,0.589,0.599,0.964,0.536
O=c1c(O)c(-c2ccc(O)c(O)c2)oc2cc(O)cc(O)c12,1.07,0.878,1.06 and 1.07,1.45 and 0.888
O=C(O)/C=C/c1ccccc1,1.16,1.08,0.982 and 0.978,1.24 and 0.899

SMILES,cell viability [1],cell viability [2],cell viability [3],cell viability [4]
CCCCC[C@H](O)CC(=O)CCc1ccc(O)c(OC)c1,0.891,0.88,1.3,0.897
CCCC(CCC)C(=O)O,1.08 and 0.978 and 0.872,0.94 and 0.998 and 0.915,0.577 and 0.989,0.503 and 0.984
CCS(=O)(=O)N1CC(CC#N)(n2cc(-c3ncnc4[nH]ccc34)cn2)C1,0.996 and 1.1,0.891 and 1,,
C[C@@H]1O[C@@H](Oc2c(-c3cc(O)c(O)c(O)c3)oc3cc(O)cc(O)c3c2=O)[C@H](O)[C@H](O)[C@H]1O,1.03,0.937,1.67,0.873
NC(=O)c1ccc[n+]([C@@H]2O[C@H](CO)[C@@H](O)[C@H]2O)c1,,,0.97,1.23
C[C@@H]1O[C@@H](O[C@H]2[C@H](O[C@H]3[C@H](O[C@H]4CC[C@]5(C)[C@H]6CC=C7[C@@H]8CC(C)(C)CC[C@]8(C(=O)O)CC[C@@]7(C)[C@]6(C)CC[C@H]5C4(C)C)OC[C@H](O)[C@@H]3O)O[C@H](CO)[C@@H](O)[C@@H]2O)[C@H](O)[C@H](O)[C@H]1O,0.129,0.243,0.334,0.263
CCCCCCCCCCCCC/C=C/[C@@H](O)[C@@H](N)CO,1.08,1.09,0.856,0.959
C[C@@H]1O[C@@H](OC[C@H]2O[C@@H](Oc3c(-c4ccc(O)c(O)c4)oc4cc(O)cc(O)c4c3=O)[C@H](O)[C@@H](O)[C@@H]2O)[C@H](O)[C@H](O)[C@H]1O,,,0.834,
O=c1oc2c(O)c(O)cc3c(=O)oc4c(O)c(O)cc1c4c23,1.01,0.887,1.11,0.958
C=C1C(=O)O[C@H]2[C@H]1CC/C(C)=C/CC[C@@]1(C)O[C@@H]21,1.33,0.839,1.72,0.93
COc1cccc2c1C(=O)c1c(O)c3c(c(O)c1C2=O)CC(O)(C(=O)CO)CC3OC1CC(N)C(O)C(C)O1 (centres undefined),0.313,0.314,0.851,0.672
Nc1ccn([C@@H]2O[C@H](CO)[C@@H](O)[C@@H]2O)c(=O)n1,0.532,0.669,0.871,0.792
CC(C)c1cccc(=O)c(O)c1,0.734,0.59,0.812,0.611
COc1cc2c(cc1O)CC[C@@H]1[C@@H]2CC[C@]2(C)[C@@H](O)CC[C@@H]12,0.439,0.697,0.65,0.734
O=C(O[C@@H]1Cc2c(O)cc(O)cc2O[C@@H]1c1cc(O)c(O)c(O)c1)c1cc(O)c(O)c(O)c1,0.941,0.854,1.36,0.918
NC(=O)c1ccccc1,1.08,1,0.8,1.08
COc1cc(/C=C/C(=O)CC(=O)/C=C/c2ccc(O)c(OC)c2)ccc1O,0.909,0.762,0.837 and 1.13,1.37 and 0.868
O=c1ccc2ccccc2o1,0.872,0.794,1.17,1.04
Nc1nc2[nH]cnc2c(=S)[nH]1,0.339,0.684,0.507,0.64
COc1ccc(-c2coc3cc(O[C@@H]4O[C@H](CO)[C@@H](O)[C@H](O)[C@H]4O)ccc3c2=O)cc1,,,1.03,1.05
NC(=O)c1ncn([C@@H]2O[C@H](CO)[C@@H](O)[C@H]2O)c1N,0.905,1.05,0.941,0.884
CCCCCCCCCC(=O)N[C@@H](Cc1c[nH]c2ccccc12)C(=O)N[C@@H](CC(N)=O)C(=O)N[C@@H](CC(=O)O)C(=O)N[C@@H]1C(=O)NCC(=O)N[C@@H](CCCN)C(=O)N[C@@H](CC(=O)O)C(=O)N[C@H](C)C(=O)N[C@@H](CC(=O)O)C(=O)NCC(=O)N[C@H](CO)C(=O)N[C@@H]([C@H](C)CC(=O)O)C(=O)N[C@@H](CC(=O)c2ccccc2N)C(=O)O[C@@H]1C,0.13,1.03,1.08,0.585
Cc1ccc(C(C)C)c(O)c1,,,1.4,0.972
N#CC[C@H](C1CCCC1)n1cc(-c2ncnc3[nH]ccc23)cn1,1.16 and 1.03,0.901 and 0.829,1.11,0.822

# 2 records drawn at random from the list so far:
SMILES,cell viability [1],cell viability [2],cell viability [3],cell viability [4]
O=c1ccc2ccccc2o1,0.872,0.794,1.17,1.04
Nc1ccn([C@@H]2O[C@H](CO)[C@@H](O)[C@@H]2O)c(=O)n1,0.532,0.669,0.871,0.792
